PubChem BioAssay AID1508588, Peter MacCallum Cancer Centre – 2020
Assay: 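Which gene losses make BRAF-mutant melanoma cells more responsive to vemurafenib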 (primary screen). Cell system: human WM266.4 melanoma cells (BRAF V600 mutant). Knock-down reagent: siRNA pool against human genes, 40 nM. Time to read-out: 96 h from transfection to read-out. Conditions: vemurafenib 300 nM (about IC25), added 48 h after transfection, for 48 h; comparison arm got DMSO vehicle only. Measured: 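Ratios to non-targeting siRNA for cell gain, counted as DAPI nuclei after minus before drug and averaged over two replicates, and for absorbance-read medium lactate per cell; both binned into fold-change classes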. Reading the numbers: cell gain with vemurafenib: higher = more cell gain than with non-targeting siRNA; lactate per cell with vemurafenib: higher = more lactate made per cell. Hit rule: 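a knock-down counts as enhancing when its fold-change classes with vehicle and with vemurafenib, taken together, show a stronger drug effect on cell gain or lactate per cell; exact class pairs not stated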. Calls: active = enhances vemurafenib effect; inactive = no enhancement seen.
This is a random part of about 18,000 reagents tested. Of all reagents, 790 (4.4%) were called active. 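Calls rest on a combination of fold-change classes in drug and vehicle arms, not all shown here.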

RGS4 (regulator of G protein signaling 4) scored cell gain with vemurafenib 0.85; lactate per cell with vemurafenib 0.86; inactive.
With knock-down of TEX2 (testis expressed 2), the record shows cell gain with vemurafenib 0.74; lactate per cell with vemurafenib 1.29; inactive.
For ADM (adrenomedullin), the values are cell gain with vemurafenib 0.74; lactate per cell with vemurafenib 0.98; inactive.
For RNASE8 (ribonuclease A family member 8), the entry reads cell gain with vemurafenib 0.33; lactate per cell with vemurafenib 2.64; inactive.
LRRC4B (leucine rich repeat containing 4B) showed cell gain with vemurafenib 0.57; lactate per cell with vemurafenib 1.98; inactive.
Knock-down of CDHR2 (cadherin related family member 2) resulted in: cell gain with vemurafenib 0.8; lactate per cell with vemurafenib 0.58; active.
For ZNF140 (zinc finger protein 140) the deposit lists cell gain with vemurafenib 0.56; lactate per cell with vemurafenib 0.68; inactive.
SPX (spexin hormone) scored cell gain with vemurafenib 0.93; lactate per cell with vemurafenib 0.82; inactive.
RILPL1 (Rab interacting lysosomal protein like 1) showed cell gain with vemurafenib 0.69; lactate per cell with vemurafenib 0.8; inactive.
Depletion of LYVE1 (lymphatic vessel endothelial hyaluronan receptor 1) gave: cell gain with vemurafenib 0.49; lactate per cell with vemurafenib 0.59; inactive.
Silencing of ERMP1 (endoplasmic reticulum metallopeptidase 1) gave: cell gain with vemurafenib 0.28; lactate per cell with vemurafenib 0.62; inactive.
SEH1L (SEH1 like nucleoporin) showed cell gain with vemurafenib -0.22; lactate per cell with vemurafenib 0.3; inactive.
After knock-down of RAD9A (RAD9 checkpoint clamp component A), the screen gave cell gain with vemurafenib 0.32; lactate per cell with vemurafenib 1.17; inactive.
ADAMTS3 (ADAM metallopeptidase with thrombospondin type 1 motif 3) scored cell gain with vemurafenib 0.39; lactate per cell with vemurafenib 0.84; inactive.
After knock-down of PHC1 (polyhomeotic homolog 1), the screen gave cell gain with vemurafenib 0.46; lactate per cell with vemurafenib 0.46; active.
Knock-down of MMP23B (matrix metallopeptidase 23B) resulted in: cell gain with vemurafenib 0.83; lactate per cell with vemurafenib 1.4; inactive.

Quoted from the entries so far (2 entries):
RGS4 (regulator of G protein signaling 4): cell gain with vemurafenib = 0.85; lactate per cell with vemurafenib = 0.86; outcome = inactive
TEX2 (testis expressed 2): cell gain with vemurafenib = 0.74; lactate per cell with vemurafenib = 1.29; outcome = inactive
